Results from patent publication US20250018037A1 (SEOUL NATIONAL UNIVERSITY R AND DB FOUNDATION, published 2025).
Results are given in words; binding and its absence hold for the method and conditions named. Some binding calls cover weakened binding; strength is not graded here. Tags and fused reporters may be left off the sequences shown.

Protein sequences, listed by entry. Tags and fused reporters are not part of them. Lines headed by an entry give the natural chain unless they say otherwise; changes in a name come on top. Residues count along the entry.
UniProt P25942: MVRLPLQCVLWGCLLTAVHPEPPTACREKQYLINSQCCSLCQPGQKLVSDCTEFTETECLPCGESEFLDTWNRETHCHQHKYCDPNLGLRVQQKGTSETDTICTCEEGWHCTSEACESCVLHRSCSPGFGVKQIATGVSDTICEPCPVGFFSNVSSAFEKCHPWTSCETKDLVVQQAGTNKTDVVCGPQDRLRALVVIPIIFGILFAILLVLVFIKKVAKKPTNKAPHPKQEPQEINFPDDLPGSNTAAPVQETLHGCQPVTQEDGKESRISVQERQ
Recombinant human CD40-Fc (1493-CDB, R&D systems): residues 21-193 of P25942

Assays:
[1] = molecular target: Mouse CD40 on cells (A20 lymphoma cells, EL4-mCD40 cells, peritoneal macrophages, splenic dendritic cells) (mouse) (UniProt P27512); test: flow cytometry on A20 cells, detection with anti-human Cκ-APC
[2] = molecular target: T1, Recombinant mouse CD40-Fc (1215-CD, R&D systems) (mouse) (UniProt P27512); test: ELISA on coated mouse CD40-Fc, detection with anti-human Cκ-HRP
T1 sequence (looked up): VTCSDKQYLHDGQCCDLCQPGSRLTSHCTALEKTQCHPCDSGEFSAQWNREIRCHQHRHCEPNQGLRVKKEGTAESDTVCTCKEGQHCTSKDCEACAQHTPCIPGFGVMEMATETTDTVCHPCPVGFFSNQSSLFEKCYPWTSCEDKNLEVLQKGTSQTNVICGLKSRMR

[3] = molecular target: T1, Recombinant mouse CD40-Fc (1215-CD, R&D systems) (mouse); test: ELISA, mouse CD40-Fc coated at 2.5 µg/ml, detection with anti-human Cκ-HRP
[4] = molecular target: T1, Recombinant mouse CD40-Fc (1215-CD, R&D systems) (mouse); test: ELISA on coated mouse CD40-Fc (FIG. 8A)
[5] = molecular target: Mouse CD40 on cells (A20 lymphoma cells, EL4-mCD40 cells, peritoneal macrophages, splenic dendritic cells) (mouse) (UniProt P27512); test: flow cytometry on A20 cells (FIG. 8B)
[6] = molecular target: T2, Human CD40 on cells (Raji, Daudi, IM-9) (human, UniProt P25942 21-277); test: flow cytometry on Raji cells, detection with anti-human Ck-APC
T2 construct: whole, on cells; also called cell surface CD40; hCD40

[7] = molecular target: Recombinant human CD40-Fc (1493-CDB, R&D systems) (human) (UniProt P25942); test: ELISA, human CD40-Fc coated at 2.5 µg/ml, detection with anti-human Cκ-HRP
[8] = molecular target: Recombinant human CD40-Fc (1493-CDB, R&D systems) (human) (UniProt P25942); test: ELISA on coated human CD40-Fc, detection with anti-human Cκ-HRP
[9] = molecular target: T2, Human CD40 on cells (Raji, Daudi, IM-9); test: flow cytometry on Raji cells (FIG. 13B)
[10] = molecular target: Recombinant human CD40-Fc (1493-CDB, R&D systems) (human) (UniProt P25942); test: ELISA on coated human CD40-Fc (FIG. 13A)

Measured: binding

B1: C1C02-Cκ (anti-mouse CD40 scFv clone C1C02 fused with human immunoglobulin kappa light chain constant region) (scFv)
scFv: QAALTQPSSVSANPGETVKITCSGGSSNYGWYQQKSPGSAPATVIYDNTNRPSDIPSRFSGALSGSTATLTITGVQVEDEAVYYCGGYDSGTYAGIFGAGTTLTVLGQSSRSSGGGGSSGGGGSAVTLDESGGGLQTPGGTLSLACKGSGFTFSSVNMQWVRQAPGKGLEWVAGISSDGSYTAYGAAVKGRATISRDNGQSTVRLQLNNLRAEDTAIYYCAKIAGGYYWDAAYSIDMWGHGTEVIVSSTSGQAGQRTVAAPSVFIFPPSDEQLKSGTASVVCLLNNFYPREAKVQWKVDNALQSGNSQESVTEQDSKDSTYSLSSTLTLSKADYEKHKVYACEVTHQGLSSPVTKSFNRGES
notes: also called C1C02 scFv; anti-mouse CD40 antibody (clone C1C02)
binds: [1] | [2] | [3] | [4] | [5]

B2: 2B1-Cκ (anti-human CD40 scFv clone 2B1 fused with human Cκ) (scFv)
scFv: QAALTQPSSVSANPGETVKITCSGGDSYAGSYYYGWFQQKAPGSAPVTVIYYNDKRPSDIPSRFSGSTSGSTSTLTITGVQAEDEAVYYCGSIDTSSGTGIFGAGTTLTVLGQSSRSSGGGGSSGGGGSAVTLDESGGGLQTPGGALSLVCKGSGFTFSSYQMFWVRQAPGKGLEYVAEISGSGLSTWYAPAVKGRATISRDNGQSTVRLQLNNLRAEDTGTYYCAKAAGSCGVGTCAGGIVDGIDAWGHGTEVIVSSTSGQAGQRTVAAPSVFIFPPSDEQLKSGTASVVCLLNNFYPREAKVQWKVDNALQSGNSQESVTEQDSKDSTYSLSSTLTLSKADYEKHKVYACEVTHQGLSSPVTKSFNRGES
notes: also called 2B1-Ck; free 2B1
binds: [6] | [7] | [8] | [9] | [10]

B3: 2E1-Cκ (anti-human CD40 scFv clone 2E1 fused with human Cκ) (scFv)
scFv: QAALTQPSSVSANPGETVKITCSGSSSSYYGWYQQKAPGSAPVTLIYANDKRPSDIPSRFSGSKSGSTHTLTITGVQADDEAVYFCGSADSTDSGFGAGTTLTVLGQSSRSSGGGGSSGGGGSAVTLDESGGGLQTPGGALSLVCKASGFSFSSYSMHWVRQAPGKGLEFVAAISSDGSRYTHYGPAVKGRATISRDNGQSTVRLQLNNLRPEDTGTYYCAKTSNTWTWNTGWIDAWGHGTEVIVSSTSGQAGQRTVAAPSVFIFPPSDEQLKSGTASVVCLLNNFYPREAKVQWKVDNALQSGNSQESVTEQDSKDSTYSLSSTLTLSKADYEKHKVYACEVTHQGLSSPVTKSFNRGES
notes: also called 2E1-Ck
binds: [6] | [7] | [8] | [9] | [10]
